# Measurements as given in US20230406833A1, “HERBICIDAL MALONAMIDES” (BASF SE, priority 2020, published 2023).
# Some of these results come from one statement about several compounds together.
# Test system: Setaria faberi (SETFA)
# Assay: greenhouse pre-emergence herbicidal test
# Type: in vivo
# Settings: 0.250 kg/ha, scale from 0 to 100
# Text: (§1) The culture containers used were plastic flowerpots containing loamy sand with approximately 3.0% of humus as the substrate. The seeds of the test plants were sown separately for each species.
# (§2) For the pre-emergence treatment, the active ingredients, which had been suspended or emulsified in water, were applied directly after sowing by means of finely distributing nozzles. The containers were irrigated gently to promote germination and growth and subsequently covered with transparent plastic hoods until the test plants had rooted. This cover caused uniform germination of the test plants, unless this had been impaired by the active ingredients. For the post-emergence treatment, the test plants were first grown to a height of 3 to 15 cm, depending on the plant habit, and only then treated with the active ingredients which had been suspended or emulsified in water. For this purpose, the test plants were either shown directly and grown in the same containers, or they were first grown separately as seedlings and transplanted into the test containers a few days prior to treatment.
# (§3) Depending on the species, the test plants were kept at 10-25° C. or 20-35° C., respectively. The test period extended over 2 to 4 weeks. During this time, the test plants were tended, and their response to the individual treatments was evaluated.
# (§4) Evaluation was carried out using a scale from 0 to 100. 100 means no emergence of the test plants, or complete destruction of at least the aerial moieties, and 0 means no damage, or normal course of growth. A good herbicidal activity is given at values of 70 to <90 and a very good herbicidal activity is given at values of 90 to 100.
# (§5) The test plants used in the greenhouse experiments were of the following species: […]
row,Structure (SMILES),herbicidal activity against SETFA
1,O=C(O)C1CC(NC(=O)C2(C(=O)Nc3cc(Cl)cc(Cl)c3)C=CCO2)C1 (stereo not drawn) [I.84],very good (a very good herbicidal activity is given at values of 90 to 100)
2,COC(=O)C1CC(NC(=O)C2(C(=O)Nc3cc(F)cc(F)c3)CCCO2)C1 (stereo not drawn) [I.110],very good (a very good herbicidal activity is given at values of 90 to 100)
3,COC(=O)CCC(C)NC(=O)C1(C(=O)Nc2cc(Cl)cc(Cl)c2)C=CCO1 (mixture of isomers) [I.26],very good (a very good herbicidal activity is given at values of 90 to 100)

# Test system: Apera spica-venti (APESV)
# Assay: greenhouse pre-emergence herbicidal test
# Type: in vivo
# Settings: 0.250 kg/ha, scale from 0 to 100
# Text: as §1, §2, §3, §4, §5
row,Structure (SMILES),herbicidal activity against APESV
1,O=C(O)C1CC(NC(=O)C2(C(=O)Nc3cc(Cl)cc(Cl)c3)C=CCO2)C1 (stereo not drawn) [I.84],very good (a very good herbicidal activity is given at values of 90 to 100)
2,CSCCOC(=O)C1CC(NC(=O)C2(C(=O)Nc3cc(Cl)cc(Cl)c3)C=CCO2)C1 (racemic) [I.187],very good (a very good herbicidal activity is given at values of 90 to 100)
3,COC(=O)[C@H]1C[C@@H](NC(=O)C2(C(=O)Nc3cc(F)cc(F)c3)CCO2)C1 (stereo partly drawn) [I.159],very good (a very good herbicidal activity is given at values of 90 to 100)
4,COC(=O)C1CC(NC(=O)C2(C(=O)Nc3cc(F)cc(F)c3)CCCO2)C1 (stereo not drawn) [I.110],very good (a very good herbicidal activity is given at values of 90 to 100)
5,COC(=O)CCC(C)NC(=O)C1(C(=O)Nc2cc(Cl)cc(Cl)c2)C=CCO1 (mixture of isomers) [I.26],very good (a very good herbicidal activity is given at values of 90 to 100)
6,CC(CCC(=O)OCC(F)F)NC(=O)C1(C(=O)Nc2cc(F)cc(F)c2)CCO1 (stereo not drawn) [I.153],very good (a very good herbicidal activity is given at values of 90 to 100)

# Test system: Echinocloa crus-galli (ECHCG)
# Assay: greenhouse pre-emergence herbicidal test
# Type: in vivo
# Settings: 0.250 kg/ha, scale from 0 to 100
# Text: as §1, §2, §3, §4, §5
row,Structure (SMILES),herbicidal activity against ECHCG
1,O=C(O)C1CC(NC(=O)C2(C(=O)Nc3cc(Cl)cc(Cl)c3)C=CCO2)C1 (stereo not drawn) [I.84],very good (a very good herbicidal activity is given at values of 90 to 100)
2,CSCCOC(=O)C1CC(NC(=O)C2(C(=O)Nc3cc(Cl)cc(Cl)c3)C=CCO2)C1 (racemic) [I.187],good (A good herbicidal activity is given at values of 70 to <90)
3,COC(=O)[C@H]1C[C@@H](NC(=O)C2(C(=O)Nc3cc(F)cc(F)c3)CCO2)C1 (stereo partly drawn) [I.159],good (A good herbicidal activity is given at values of 70 to <90)
4,COC(=O)C1CC(NC(=O)C2(C(=O)Nc3cc(F)cc(F)c3)CCCO2)C1 (stereo not drawn) [I.110],good (A good herbicidal activity is given at values of 70 to <90)
5,COC(=O)CCC(C)NC(=O)C1(C(=O)Nc2cc(Cl)cc(Cl)c2)C=CCO1 (mixture of isomers) [I.26],good (A good herbicidal activity is given at values of 70 to <90)
6,CC(CCC(=O)OCC(F)F)NC(=O)C1(C(=O)Nc2cc(F)cc(F)c2)CCO1 (stereo not drawn) [I.153],good (A good herbicidal activity is given at values of 70 to <90)

# Test system: Setaria viridis (SETVI)
# Assay: greenhouse post-emergence herbicidal test
# Type: in vivo
# Settings: 0.250 kg/ha, scale from 0 to 100
# Text: as §1, §2, §3, §4, §5
row,Structure (SMILES),herbicidal activity against SETVI
1,O=C(O)C1CC(NC(=O)C2(C(=O)Nc3cc(Cl)cc(Cl)c3)C=CCO2)C1 (stereo not drawn) [I.84],very good (a very good herbicidal activity is given at values of 90 to 100)
2,CSCCOC(=O)C1CC(NC(=O)C2(C(=O)Nc3cc(Cl)cc(Cl)c3)C=CCO2)C1 (racemic) [I.187],very good (a very good herbicidal activity is given at values of 90 to 100)
3,COC(=O)[C@H]1C[C@@H](NC(=O)C2(C(=O)Nc3cc(F)cc(F)c3)CCO2)C1 (stereo partly drawn) [I.159],very good (a very good herbicidal activity is given at values of 90 to 100)
4,COC(=O)C1CC(NC(=O)C2(C(=O)Nc3cc(F)cc(F)c3)CCCO2)C1 (stereo not drawn) [I.110],very good (a very good herbicidal activity is given at values of 90 to 100)
5,COC(=O)CCC(C)NC(=O)C1(C(=O)Nc2cc(Cl)cc(Cl)c2)C=CCO1 (mixture of isomers) [I.26],very good (a very good herbicidal activity is given at values of 90 to 100)
6,CC(CCC(=O)OCC(F)F)NC(=O)C1(C(=O)Nc2cc(F)cc(F)c2)CCO1 (stereo not drawn) [I.153],very good (a very good herbicidal activity is given at values of 90 to 100)

# Test system: Amaranthus retroflexus (AMARE)
# Assay: greenhouse post-emergence herbicidal test
# Type: in vivo
# Settings: 0.250 kg/ha, scale from 0 to 100
# Text: as §1, §2, §3, §4, §5
row,Structure (SMILES),herbicidal activity against AMARE
1,O=C(O)C1CC(NC(=O)C2(C(=O)Nc3cc(Cl)cc(Cl)c3)C=CCO2)C1 (stereo not drawn) [I.84],very good (a very good herbicidal activity is given at values of 90 to 100)
2,CSCCOC(=O)C1CC(NC(=O)C2(C(=O)Nc3cc(Cl)cc(Cl)c3)C=CCO2)C1 (racemic) [I.187],very good (a very good herbicidal activity is given at values of 90 to 100)
3,COC(=O)[C@H]1C[C@@H](NC(=O)C2(C(=O)Nc3cc(F)cc(F)c3)CCO2)C1 (stereo partly drawn) [I.159],very good (a very good herbicidal activity is given at values of 90 to 100)
4,COC(=O)C1CC(NC(=O)C2(C(=O)Nc3cc(F)cc(F)c3)CCCO2)C1 (stereo not drawn) [I.110],very good (a very good herbicidal activity is given at values of 90 to 100)
5,COC(=O)CCC(C)NC(=O)C1(C(=O)Nc2cc(Cl)cc(Cl)c2)C=CCO1 (mixture of isomers) [I.26],good (A good herbicidal activity is given at values of 70 to <90)
6,CC(CCC(=O)OCC(F)F)NC(=O)C1(C(=O)Nc2cc(F)cc(F)c2)CCO1 (stereo not drawn) [I.153],very good (a very good herbicidal activity is given at values of 90 to 100)

# Test system: Echinocloa crus-galli (ECHCG)
# Assay: greenhouse post-emergence herbicidal test
# Type: in vivo
# Settings: 0.250 kg/ha, scale from 0 to 100
# Text: as §1, §2, §3, §4, §5
row,Structure (SMILES),herbicidal activity against ECHCG
1,O=C(O)C1CC(NC(=O)C2(C(=O)Nc3cc(Cl)cc(Cl)c3)C=CCO2)C1 (stereo not drawn) [I.84],very good (a very good herbicidal activity is given at values of 90 to 100)
2,CSCCOC(=O)C1CC(NC(=O)C2(C(=O)Nc3cc(Cl)cc(Cl)c3)C=CCO2)C1 (racemic) [I.187],very good (a very good herbicidal activity is given at values of 90 to 100)
3,COC(=O)[C@H]1C[C@@H](NC(=O)C2(C(=O)Nc3cc(F)cc(F)c3)CCO2)C1 (stereo partly drawn) [I.159],very good (a very good herbicidal activity is given at values of 90 to 100)
4,COC(=O)C1CC(NC(=O)C2(C(=O)Nc3cc(F)cc(F)c3)CCCO2)C1 (stereo not drawn) [I.110],very good (a very good herbicidal activity is given at values of 90 to 100)
5,COC(=O)CCC(C)NC(=O)C1(C(=O)Nc2cc(Cl)cc(Cl)c2)C=CCO1 (mixture of isomers) [I.26],good (A good herbicidal activity is given at values of 70 to <90)
6,CC(CCC(=O)OCC(F)F)NC(=O)C1(C(=O)Nc2cc(F)cc(F)c2)CCO1 (stereo not drawn) [I.153],very good (a very good herbicidal activity is given at values of 90 to 100)
